Our source for the binding values is publication PMC7322711.

The chains behind the UniProt entries cited, without tags or fusion partners.
UniProt P49792: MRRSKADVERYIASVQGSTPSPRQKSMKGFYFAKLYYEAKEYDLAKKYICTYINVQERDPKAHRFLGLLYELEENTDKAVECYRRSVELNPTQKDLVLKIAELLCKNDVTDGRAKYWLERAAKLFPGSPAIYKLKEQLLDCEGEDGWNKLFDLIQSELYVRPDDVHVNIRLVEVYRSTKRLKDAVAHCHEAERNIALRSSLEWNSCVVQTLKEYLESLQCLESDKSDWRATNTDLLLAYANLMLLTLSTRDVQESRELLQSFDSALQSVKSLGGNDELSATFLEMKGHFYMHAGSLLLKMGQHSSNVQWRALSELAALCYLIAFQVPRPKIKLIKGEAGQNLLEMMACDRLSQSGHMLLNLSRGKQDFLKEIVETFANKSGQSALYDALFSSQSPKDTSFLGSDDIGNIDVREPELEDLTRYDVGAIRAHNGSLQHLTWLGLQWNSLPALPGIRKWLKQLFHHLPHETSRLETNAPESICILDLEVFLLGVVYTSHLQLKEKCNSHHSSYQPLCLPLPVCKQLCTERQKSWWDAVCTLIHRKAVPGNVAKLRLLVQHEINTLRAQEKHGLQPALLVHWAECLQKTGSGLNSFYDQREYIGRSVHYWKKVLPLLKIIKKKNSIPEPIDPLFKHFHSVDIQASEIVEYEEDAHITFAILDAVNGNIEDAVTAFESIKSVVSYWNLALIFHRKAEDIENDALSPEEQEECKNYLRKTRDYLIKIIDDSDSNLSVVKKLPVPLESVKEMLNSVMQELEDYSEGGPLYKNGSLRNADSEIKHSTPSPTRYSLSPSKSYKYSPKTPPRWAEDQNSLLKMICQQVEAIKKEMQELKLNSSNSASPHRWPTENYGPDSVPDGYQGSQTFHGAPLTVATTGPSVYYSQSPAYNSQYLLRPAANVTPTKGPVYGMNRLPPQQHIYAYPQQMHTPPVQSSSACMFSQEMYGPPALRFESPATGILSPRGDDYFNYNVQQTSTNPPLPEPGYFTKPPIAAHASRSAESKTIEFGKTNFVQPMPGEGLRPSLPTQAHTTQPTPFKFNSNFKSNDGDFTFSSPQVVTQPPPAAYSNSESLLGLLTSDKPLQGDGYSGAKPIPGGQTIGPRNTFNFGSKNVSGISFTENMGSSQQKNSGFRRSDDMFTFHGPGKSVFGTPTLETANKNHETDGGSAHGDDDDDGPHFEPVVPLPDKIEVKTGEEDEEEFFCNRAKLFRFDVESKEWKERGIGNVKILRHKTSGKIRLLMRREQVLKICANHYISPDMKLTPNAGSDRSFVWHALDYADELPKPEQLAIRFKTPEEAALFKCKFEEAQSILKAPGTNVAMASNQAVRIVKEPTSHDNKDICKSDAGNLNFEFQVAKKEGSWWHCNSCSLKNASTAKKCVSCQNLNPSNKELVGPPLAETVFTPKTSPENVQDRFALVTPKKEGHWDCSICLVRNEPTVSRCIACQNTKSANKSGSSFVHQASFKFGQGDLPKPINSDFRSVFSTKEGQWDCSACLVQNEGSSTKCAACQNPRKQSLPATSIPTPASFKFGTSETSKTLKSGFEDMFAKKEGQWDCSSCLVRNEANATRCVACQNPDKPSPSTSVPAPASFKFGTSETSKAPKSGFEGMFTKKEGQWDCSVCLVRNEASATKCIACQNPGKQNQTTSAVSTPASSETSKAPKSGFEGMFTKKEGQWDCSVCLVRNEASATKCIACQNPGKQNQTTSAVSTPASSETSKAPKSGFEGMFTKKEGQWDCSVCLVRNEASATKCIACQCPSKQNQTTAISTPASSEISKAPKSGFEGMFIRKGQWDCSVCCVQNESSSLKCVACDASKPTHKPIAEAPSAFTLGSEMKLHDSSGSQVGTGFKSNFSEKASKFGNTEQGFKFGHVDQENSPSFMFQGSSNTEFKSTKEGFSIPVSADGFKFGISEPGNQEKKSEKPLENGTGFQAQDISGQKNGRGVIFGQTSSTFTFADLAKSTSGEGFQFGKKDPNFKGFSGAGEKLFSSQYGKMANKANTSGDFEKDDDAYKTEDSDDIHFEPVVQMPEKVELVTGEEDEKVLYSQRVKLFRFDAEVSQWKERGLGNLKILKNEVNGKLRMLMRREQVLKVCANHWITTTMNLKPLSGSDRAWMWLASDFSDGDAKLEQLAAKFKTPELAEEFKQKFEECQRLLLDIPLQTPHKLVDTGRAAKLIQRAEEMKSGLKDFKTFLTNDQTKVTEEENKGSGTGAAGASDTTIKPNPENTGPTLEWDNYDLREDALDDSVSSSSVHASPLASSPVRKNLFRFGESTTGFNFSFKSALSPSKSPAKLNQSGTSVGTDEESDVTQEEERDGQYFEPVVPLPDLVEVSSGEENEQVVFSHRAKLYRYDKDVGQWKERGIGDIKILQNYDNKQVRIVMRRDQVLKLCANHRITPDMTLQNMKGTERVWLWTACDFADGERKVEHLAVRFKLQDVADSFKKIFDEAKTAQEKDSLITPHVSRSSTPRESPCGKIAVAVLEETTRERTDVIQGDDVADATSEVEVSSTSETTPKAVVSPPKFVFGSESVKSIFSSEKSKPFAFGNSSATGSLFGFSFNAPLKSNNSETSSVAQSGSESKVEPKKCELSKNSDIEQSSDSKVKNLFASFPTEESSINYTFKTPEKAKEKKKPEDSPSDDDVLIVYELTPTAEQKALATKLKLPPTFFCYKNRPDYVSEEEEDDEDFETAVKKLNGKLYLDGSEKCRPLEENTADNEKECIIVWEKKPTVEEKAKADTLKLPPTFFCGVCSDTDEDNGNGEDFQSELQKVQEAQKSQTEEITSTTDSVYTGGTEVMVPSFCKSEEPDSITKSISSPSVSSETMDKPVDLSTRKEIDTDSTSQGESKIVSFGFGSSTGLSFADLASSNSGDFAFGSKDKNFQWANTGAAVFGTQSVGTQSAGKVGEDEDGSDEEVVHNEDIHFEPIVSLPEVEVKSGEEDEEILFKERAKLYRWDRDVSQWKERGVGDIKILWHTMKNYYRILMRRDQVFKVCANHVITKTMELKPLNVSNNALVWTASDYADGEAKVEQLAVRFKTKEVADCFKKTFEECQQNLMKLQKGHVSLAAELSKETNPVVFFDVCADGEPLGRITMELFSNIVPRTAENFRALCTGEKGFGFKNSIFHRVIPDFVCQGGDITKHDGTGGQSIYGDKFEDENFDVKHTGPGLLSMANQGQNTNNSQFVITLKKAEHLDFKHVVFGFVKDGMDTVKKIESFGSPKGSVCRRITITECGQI

The assay addresses NUP358 (human (endogenous in 293T)) (UniProt P49792). As to the kind of experiment: co-IP; 293T cells transfected with HA-tagged MxB proteins; NP40 lysate; endogenous NUP358 immunoprecipitated with anti-NUP358 antibody and Protein-G Sepharose, 4 °C, 4 h; associated HA-tagged proteins detected by immunoblot; control rabbit IgG. Background: In western blotting, separated proteins are transferred to a membrane and probed.

No constants are given. Whether binding was seen depends on the method and setting. Binding seen in cells or lysates may run through a third protein. Some entries that bind do so weakly or less than the wild type. Sequences can lack the tags named with a protein.

B1: HA-tagged non-antiviral short isoform of MxB that lacks the NLS (MxB_(ΔNLS)) (domain or fragment, UniProt P20592-1 26-715)
chain: MNSFQQQPPPFGTVPPQMMFPPNWQGAEKDAAFLAKDFNFLTLNNQPPPGNRSQPRAMGPENNLYSQYEQKVRPCIDLIDSLRALGVEQDLALPAIAVIGDQSSGKSSVLEALSGVALPRGSGIVTRCPLVLKLKKQPCEAWAGRISYRNTELELQDPGQVEKEIHKAQNVMAGNGRGISHELISLEITSPEVPDLTIIDLPGITRVAVDNQPRDIGLQIKALIKKYIQRQQTINLVVVPCNVDIATTEALSMAHEVDPEGDRTIGILTKPDLMDRGTEKSVMNVVRNLTYPLKKGYMIVKCRGQQEITNRLSLAEATKKEITFFQTHPYFRVLLEEGSATVPRLAERLTTELIMHIQKSLPLLEGQIRESHQKATEELRRCGADIPSQEADKMFFLIEKIKMFNQDIEKLVEGEEVVRENETRLYNKIREDFKNWVGILATNTQKVKNIIHEEVEKYEKQYRGKELLGFVNYKTFEIIVHQYIQQLVEPALSMLQKAMEIIQQAFINVAKKHFGEFFNLNQTVQSTIEDIKVKHTAKAENMIQLQFRMEQMVFCQDQIYSVVLKKVREEIFNPLGTPSQNMKLNSHFPSNESSVSSFTEIGIHLNAYFLETSKRLANQIPFIIQYFMLRENGDSLQKAMMQILQEKNRYSWLLQEQSETATKRRILKERIYRLTQARHALCQFSSKEIH
On to B1, for which the binding entry was “binds”.

B2: Hemagglutinin (HA)-tagged wild-type MxB (protein, UniProt P20592-1 1-715)
chain: MSKAHKPWPYRRRSQFSSRKYLKKEMNSFQQQPPPFGTVPPQMMFPPNWQGAEKDAAFLAKDFNFLTLNNQPPPGNRSQPRAMGPENNLYSQYEQKVRPCIDLIDSLRALGVEQDLALPAIAVIGDQSSGKSSVLEALSGVALPRGSGIVTRCPLVLKLKKQPCEAWAGRISYRNTELELQDPGQVEKEIHKAQNVMAGNGRGISHELISLEITSPEVPDLTIIDLPGITRVAVDNQPRDIGLQIKALIKKYIQRQQTINLVVVPCNVDIATTEALSMAHEVDPEGDRTIGILTKPDLMDRGTEKSVMNVVRNLTYPLKKGYMIVKCRGQQEITNRLSLAEATKKEITFFQTHPYFRVLLEEGSATVPRLAERLTTELIMHIQKSLPLLEGQIRESHQKATEELRRCGADIPSQEADKMFFLIEKIKMFNQDIEKLVEGEEVVRENETRLYNKIREDFKNWVGILATNTQKVKNIIHEEVEKYEKQYRGKELLGFVNYKTFEIIVHQYIQQLVEPALSMLQKAMEIIQQAFINVAKKHFGEFFNLNQTVQSTIEDIKVKHTAKAENMIQLQFRMEQMVFCQDQIYSVVLKKVREEIFNPLGTPSQNMKLNSHFPSNESSVSSFTEIGIHLNAYFLETSKRLANQIPFIIQYFMLRENGDSLQKAMMQILQEKNRYSWLLQEQSETATKRRILKERIYRLTQARHALCQFSSKEIH
Turning to B2, the binding entry was “binds”.
